Experimental data taken from publication PMC9753996.
Results are given in words; binding and its absence hold for the method and conditions named. Binding seen in cells or lysates may run through a third protein. Some results given as binding are weak or reduced against the parent protein; the word gives no strength.

By UniProt entry, the sequences of proteins in these tests, tags left out.
UniProt Q12778: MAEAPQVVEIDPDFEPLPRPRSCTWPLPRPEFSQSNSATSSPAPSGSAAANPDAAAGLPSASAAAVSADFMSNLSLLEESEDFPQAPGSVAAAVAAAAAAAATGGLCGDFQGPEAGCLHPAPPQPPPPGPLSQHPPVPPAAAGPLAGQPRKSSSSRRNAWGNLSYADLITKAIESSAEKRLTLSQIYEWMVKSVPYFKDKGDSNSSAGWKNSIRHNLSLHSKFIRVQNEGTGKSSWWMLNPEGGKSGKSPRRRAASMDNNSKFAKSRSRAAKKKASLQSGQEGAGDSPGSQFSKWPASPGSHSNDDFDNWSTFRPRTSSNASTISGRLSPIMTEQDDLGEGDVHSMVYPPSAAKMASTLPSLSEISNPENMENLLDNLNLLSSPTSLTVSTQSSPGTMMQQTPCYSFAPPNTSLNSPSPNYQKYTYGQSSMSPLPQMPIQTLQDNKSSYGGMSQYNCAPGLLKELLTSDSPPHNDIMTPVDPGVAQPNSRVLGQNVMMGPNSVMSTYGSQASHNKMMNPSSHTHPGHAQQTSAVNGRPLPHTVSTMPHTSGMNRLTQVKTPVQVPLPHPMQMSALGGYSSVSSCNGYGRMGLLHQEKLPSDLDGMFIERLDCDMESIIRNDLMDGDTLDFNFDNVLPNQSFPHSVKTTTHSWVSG
UniProt Q09472: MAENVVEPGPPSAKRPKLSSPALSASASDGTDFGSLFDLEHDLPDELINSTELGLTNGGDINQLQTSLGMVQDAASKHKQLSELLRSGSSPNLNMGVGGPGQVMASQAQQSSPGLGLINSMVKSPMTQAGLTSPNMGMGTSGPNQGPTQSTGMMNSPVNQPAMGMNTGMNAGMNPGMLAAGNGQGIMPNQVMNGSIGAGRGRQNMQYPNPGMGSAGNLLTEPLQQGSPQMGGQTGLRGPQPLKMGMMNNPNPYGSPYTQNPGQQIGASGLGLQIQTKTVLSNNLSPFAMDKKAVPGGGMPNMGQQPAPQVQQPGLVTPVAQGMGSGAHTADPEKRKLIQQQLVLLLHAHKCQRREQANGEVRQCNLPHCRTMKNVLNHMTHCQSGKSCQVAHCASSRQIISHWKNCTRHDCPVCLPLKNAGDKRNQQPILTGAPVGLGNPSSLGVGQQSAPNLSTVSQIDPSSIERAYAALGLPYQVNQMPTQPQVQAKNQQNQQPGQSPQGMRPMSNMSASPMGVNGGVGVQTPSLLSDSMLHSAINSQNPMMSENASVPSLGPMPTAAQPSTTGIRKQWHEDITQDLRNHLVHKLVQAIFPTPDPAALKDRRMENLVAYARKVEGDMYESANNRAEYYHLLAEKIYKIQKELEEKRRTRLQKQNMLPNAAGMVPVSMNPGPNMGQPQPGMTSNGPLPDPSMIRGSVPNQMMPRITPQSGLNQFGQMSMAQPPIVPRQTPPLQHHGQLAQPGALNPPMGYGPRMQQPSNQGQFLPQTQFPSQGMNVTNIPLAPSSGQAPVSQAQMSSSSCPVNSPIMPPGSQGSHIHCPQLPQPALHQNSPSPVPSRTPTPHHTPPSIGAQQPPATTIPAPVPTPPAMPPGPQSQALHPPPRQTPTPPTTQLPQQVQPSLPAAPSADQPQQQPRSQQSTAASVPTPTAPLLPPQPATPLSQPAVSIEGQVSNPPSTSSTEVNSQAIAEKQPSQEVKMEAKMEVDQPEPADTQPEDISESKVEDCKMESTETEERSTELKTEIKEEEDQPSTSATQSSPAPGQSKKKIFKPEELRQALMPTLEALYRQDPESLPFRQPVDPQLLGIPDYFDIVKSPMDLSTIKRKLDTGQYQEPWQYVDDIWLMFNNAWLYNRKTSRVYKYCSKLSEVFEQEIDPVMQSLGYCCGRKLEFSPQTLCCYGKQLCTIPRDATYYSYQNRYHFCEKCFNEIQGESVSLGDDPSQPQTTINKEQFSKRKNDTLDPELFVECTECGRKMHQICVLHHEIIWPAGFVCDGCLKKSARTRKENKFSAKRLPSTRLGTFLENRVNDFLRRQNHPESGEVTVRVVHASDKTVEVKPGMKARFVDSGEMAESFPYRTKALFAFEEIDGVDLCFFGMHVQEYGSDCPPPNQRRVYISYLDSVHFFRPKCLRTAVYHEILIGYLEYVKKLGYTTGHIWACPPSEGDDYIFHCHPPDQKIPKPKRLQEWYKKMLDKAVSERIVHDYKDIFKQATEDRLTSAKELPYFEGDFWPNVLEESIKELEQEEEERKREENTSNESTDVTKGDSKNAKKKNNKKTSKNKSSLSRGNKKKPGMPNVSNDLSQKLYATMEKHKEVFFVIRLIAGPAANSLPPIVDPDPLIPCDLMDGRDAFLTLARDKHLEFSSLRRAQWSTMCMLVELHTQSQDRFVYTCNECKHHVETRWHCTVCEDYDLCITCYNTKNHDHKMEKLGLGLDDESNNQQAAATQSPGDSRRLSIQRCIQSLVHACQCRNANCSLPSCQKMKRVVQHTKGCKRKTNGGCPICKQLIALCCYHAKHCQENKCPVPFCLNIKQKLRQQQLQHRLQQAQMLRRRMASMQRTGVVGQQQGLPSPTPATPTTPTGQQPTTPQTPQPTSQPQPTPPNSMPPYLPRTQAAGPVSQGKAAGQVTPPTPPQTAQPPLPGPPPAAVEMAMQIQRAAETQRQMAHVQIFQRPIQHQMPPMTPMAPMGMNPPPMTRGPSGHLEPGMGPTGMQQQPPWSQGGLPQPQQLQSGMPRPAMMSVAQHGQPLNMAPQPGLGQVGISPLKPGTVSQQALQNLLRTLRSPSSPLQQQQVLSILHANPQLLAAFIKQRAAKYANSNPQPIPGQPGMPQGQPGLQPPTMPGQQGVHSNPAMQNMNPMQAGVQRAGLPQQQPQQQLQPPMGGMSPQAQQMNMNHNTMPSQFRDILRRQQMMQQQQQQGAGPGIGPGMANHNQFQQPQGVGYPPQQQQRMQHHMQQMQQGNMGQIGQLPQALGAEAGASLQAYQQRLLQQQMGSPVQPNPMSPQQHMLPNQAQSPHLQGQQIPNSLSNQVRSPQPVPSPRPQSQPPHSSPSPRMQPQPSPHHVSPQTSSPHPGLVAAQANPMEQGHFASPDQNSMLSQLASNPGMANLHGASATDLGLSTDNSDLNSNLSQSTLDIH

How the values were obtained:
[1] = biological target: FOXO1 (human (endogenous in MAVER1 and CCMCL1)) (UniProt Q12778); test: proximity ligation; mock-treated MAVER1 or CCMCL1 cells, cytospin, fixed with 4% paraformaldehyde, 0.2% Triton X-100; anti-FOXO1 and anti-p300 primary antibodies, Duolink In Situ Red; mean fluorescence intensity per nucleus
[2] = biological target: FOXO1 (human (endogenous in MAVER1 and CCMCL1)) (UniProt Q12778); test: proximity ligation; MAVER1 or CCMCL1 cells treated with 2 μM cpd10, cytospin, fixed with 4% paraformaldehyde, 0.2% Triton X-100; anti-FOXO1 and anti-p300 primary antibodies, Duolink In Situ Red; mean fluorescence intensity per nucleus
[3] = biological target: 3× FLAG-tagged FOXO1 (human) (UniProt Q12778); test: co-IP; protein extracts (0.8 mg) incubated with anti-FLAG magnetic beads, normal IgG as control, 12 h at 4°C; mock-treated and cpd10-treated cells compared

- binding [1]: binds
- binding [2]: no binding (condition: with 2 μM cpd10)
- binding [3]: binds
Substance: p300 (from UniProt Q09472 1-2414)
